## Primary screen of a compound library

Source: ChEMBL document CHEMBL3988442, “University of Dundee, Small-Polar-MMV Screening Library” (2021).

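Whole-cell growth test on Mycobacterium tuberculosis, read after 4 days in a medium based on cholesterol and the lipid DPPC; the read-out is not stated. Concentration: 500 µM. Higher reads as more growth inhibition (inferred: compounds with an IC50 in retests scored well above the rest). Of about 18,000 compounds tested this way, about 900 (5%) reached 50% or more in at least one test.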

Results are given as percent effect.
The record does not define 0% and 100%; most values in the screen are far below 50% and negative numbers occur (in some assays of this library far below -100).
This is an unselected part of the compounds tested.

{"compound": "Cc1cc(C(=O)NCCCNc2ccccn2)no1", "Percent Effect": -14.65}
{"compound": "Cc1cc(NC(=O)CN2CCCCC2C)n(C)n1", "stereo": "configuration not stated", "Percent Effect": 1.705}
{"compound": "COCCNC(=O)N(C)CCN1CCCC1=O", "Percent Effect": 2.905}
{"compound": "CCCC(=O)NCc1nnc(C2CCC2)n1C", "Percent Effect": -11.66}
{"compound": "O=C(c1ccc[nH]1)N1CCCN(Cc2cscn2)CC1", "Percent Effect": -2.91}
{"compound": "CC(C)c1cc(CN2CCn3nc(CO)cc3C2)no1", "Percent Effect": -0.9531}
{"compound": "CCc1cc(=O)[nH]c(C(C)(C)N)n1", "Percent Effect": -0.9777}
{"compound": "Cn1ncnc1NC(=O)c1ccc(C#N)cc1", "Percent Effect": -12.69}
{"compound": "c1cn2c(n1)COCC2", "Percent Effect": -13.26}
{"compound": "Cc1ccc(CN2CCC(CNS(N)(=O)=O)CC2)cc1", "Percent Effect": 1.576}
{"compound": "COCc1nc2n(n1)CCCC2N", "stereo": "configuration not stated", "Percent Effect": -30.53}
{"compound": "CC(C)OCc1nc(C(C)N)no1", "stereo": "configuration not stated", "Percent Effect": 1.19}
{"compound": "COc1cccc(CN(CCN(C)C)S(C)(=O)=O)c1", "Percent Effect": 11.32}
{"compound": "COc1ccc(Br)c(C(=O)NCCCN)c1", "Percent Effect": 5.026}
{"compound": "CNC(=O)[C@@H](C)NC1CCCSC1", "stereo": "some centres not stated", "Percent Effect": 8.062}
{"compound": "O=C1CCCCN1Cn1cc(I)cn1", "Percent Effect": 50.3}
{"compound": "COc1cccc(C(CO)Nc2ncccc2C#N)c1", "stereo": "configuration not stated", "Percent Effect": 6.022}
{"compound": "Cc1ccccc1C(=O)N[C@@H]1CN(C)C[C@H]1CN(C)C", "Percent Effect": 2.215}
{"compound": "CCc1nc(CCNC(=O)CC(C)NC(C)=O)no1", "stereo": "configuration not stated", "Percent Effect": -5.668}
{"compound": "CC(C)CC(=O)Nc1ccc2[nH]c(=O)c(=O)[nH]c2c1", "Percent Effect": 1.674}
{"compound": "N#C[C@@H]1CN2CCC[C@H]2CO1", "Percent Effect": 3.183}
{"compound": "CNCC(=O)NC(c1ccccc1)c1nccn1C", "stereo": "configuration not stated", "Percent Effect": -17.96}
{"compound": "NC(=O)c1cc(OC2CCNCC2)ccn1", "Percent Effect": 1.408}
{"compound": "c1ccc(Oc2ncccn2)cc1", "Percent Effect": 15.61}
{"compound": "OC1CCN(Cc2ccccc2F)CC1", "Percent Effect": 2.448}
{"compound": "CCN1CCC(NC(=O)c2cncc(Br)c2)CC1", "Percent Effect": -1.541}
{"compound": "O=C(CN1CCCC1C(=O)N1CCOCC1)NC1CC1", "stereo": "configuration not stated", "Percent Effect": -1.325}
{"compound": "CCC(C)C(=O)Nc1nccs1", "stereo": "configuration not stated", "Percent Effect": 21.49}
{"compound": "CC(C)CC(=O)N1CCC(OCc2ccccn2)C1", "stereo": "configuration not stated", "Percent Effect": 5.861}
{"compound": "Cc1nn(C)c(Cl)c1C1CCCN1", "stereo": "configuration not stated", "Percent Effect": -4.685}
{"compound": "CCC(C)OCC(=O)N(C)Cc1ccc(O)cc1", "stereo": "configuration not stated", "Percent Effect": -2.871}
{"compound": "CSCCC(O)C(=O)N(C)CCc1ccncc1", "stereo": "configuration not stated", "Percent Effect": 6.909}
{"compound": "CC(C)c1ncc(C(=O)N2C[C@@H]3CCCN[C@@H]3C2)cn1", "Percent Effect": 4.813}
{"compound": "Cc1cccnc1NC(=O)CCN", "Percent Effect": 7.758}
{"compound": "COC(C)C(=O)NCCN(C)C(C)C", "stereo": "configuration not stated", "Percent Effect": -2.653}
{"compound": "COc1cccn(CC(=O)N2CCCCC2CN)c1=O", "stereo": "configuration not stated", "Percent Effect": -0.3989}
{"compound": "CC(CN1CCOCC1)OC(=O)c1cccn1C(C)C", "stereo": "configuration not stated", "Percent Effect": 20.48}
{"compound": "CC(=O)Nc1cccc(CSC(C)CCO)c1", "stereo": "configuration not stated", "Percent Effect": 28.74}
{"compound": "Brc1ccnc(Nc2ccccn2)c1", "Percent Effect": 37.96}
{"compound": "C[C@H](NC(=O)CSCc1ccccc1Cl)C(N)=O", "Percent Effect": -5.047}
{"compound": "Cc1noc(C)c1CC(=O)N(C)CC1CCCCO1", "stereo": "configuration not stated", "Percent Effect": -6.414}
{"compound": "CCOc1ccccc1NC(=O)CSc1c[nH]nn1", "Percent Effect": 51.91}
{"compound": "Cn1cccc1C(=O)NCC(O)Cc1ccccc1", "stereo": "configuration not stated", "Percent Effect": 24.67}
{"compound": "Cc1cc(N2CC(C)OC(C)(C)C2)n2ncnc2n1", "stereo": "configuration not stated", "Percent Effect": 1.45}
{"compound": "CCN(CC)CC(=O)NCCS(=O)(=O)C(C)(C)C", "Percent Effect": 18.41}
{"compound": "COCCNC(=O)[C@@H](N)Cc1ccccc1", "Percent Effect": -4.94}
{"compound": "CC(C(=O)NCc1ccc2c(c1)OCCO2)S(C)(=O)=O", "stereo": "configuration not stated", "Percent Effect": -0.773}
{"compound": "CC(=O)c1cc(C(=O)N2CCCCC2)c(=O)[nH]c1C", "Percent Effect": 1.434}
{"compound": "COCCOc1ccc(C(=O)N2CCOCC2)cc1Br", "Percent Effect": 6.35}
{"compound": "Cn1ccnc1SCC(=O)NC(=O)NCc1ccco1", "Percent Effect": 15.52}

Repeated from the top, 5 entries:

compound	Percent Effect
Cc1cc(C(=O)NCCCNc2ccccn2)no1	-14.65
Cc1cc(NC(=O)CN2CCCCC2C)n(C)n1 (configuration not stated)	1.705
COCCNC(=O)N(C)CCN1CCCC1=O	2.905
CCCC(=O)NCc1nnc(C2CCC2)n1C	-11.66
O=C(c1ccc[nH]1)N1CCCN(Cc2cscn2)CC1	-2.91